This is an account of results in paper PMC6412653.

By UniProt entry, the sequences of proteins in these tests, tags left out. Where a name states a change or a piece, a line headed by the entry shows the natural chain unless it says otherwise.
UniProt O76324: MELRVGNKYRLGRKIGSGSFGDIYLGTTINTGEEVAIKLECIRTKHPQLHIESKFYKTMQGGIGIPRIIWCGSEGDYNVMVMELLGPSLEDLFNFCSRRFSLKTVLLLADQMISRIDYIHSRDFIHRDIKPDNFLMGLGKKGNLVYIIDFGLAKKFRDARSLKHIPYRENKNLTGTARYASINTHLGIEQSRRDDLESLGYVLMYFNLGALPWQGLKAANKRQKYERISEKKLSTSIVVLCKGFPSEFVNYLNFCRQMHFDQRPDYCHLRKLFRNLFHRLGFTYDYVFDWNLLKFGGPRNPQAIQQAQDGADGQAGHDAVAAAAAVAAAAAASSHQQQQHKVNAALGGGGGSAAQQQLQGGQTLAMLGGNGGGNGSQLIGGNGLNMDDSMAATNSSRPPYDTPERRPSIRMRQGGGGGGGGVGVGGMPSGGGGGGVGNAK

The target of assay [1] is DBT K217N-MYC (Drosophila) (UniProt O76324). In words: co-IP; head extracts of 100 flies per genotype collected at ZT7, DBT-MYC expressed with timGAL4; DBT-MYC precipitated with mouse anti-MYC IgG and gamma-bind beads; immunoblot with anti-DBTC and anti-BDBT. In general terms: A western blot detects proteins with antibodies after separation by electrophoresis.
For assay [2], the target named is DBT R193N-MYC (Drosophila) (UniProt O76324). Described as above.

Results are given in words; binding and its absence hold for the method and conditions named. Binding seen in cells or lysates may run through a third protein. Some entries that bind do so weakly or less than the wild type.

B1: BDBT (protein, UniProt Q9VDE4 1-286)
chain: MDWYVGTEWEDKNRGLAKKVIGLQFTEMDKPTIISTVEFSVNKKATNLGGRPSKYLVSDESATYPQKHSLEMGTSLTAVDCYLELLLQQFVPGETAACSITTKTGERIEFELKLEKIVKNTQVEKLSAAEIYEVALRLKESGVATFKTFPKFAFDYFVRAAKLLITYKPFDKLTKKTNGINGQAVEELFIQIQTNLAACLLQEKRYEHVIYHTQFVETEESPSEKSIYRRALAYYHLKEFAKAQATIERMPNYEEKREFSKLRDNIAVSWKDSKAHYKEVVQRMFS
For the molecule B1, the binding result in assay [1] and in assay [2] was “binds” each time.
